Data from PubChem BioAssay AID686970 (National Center for Advancing Translational Sciences (NCATS), 2013).
The whole screen tested about 360,000 compounds, of which about 6,000 (1.7%) were called active. Only results without a clear call are listed here; the source files them as inconclusive. The call rests on the fitted dose curve; in most records, active means well fitted cell-killing curve with a large enough effect; inconclusive means small, poorly fitted or top-dose-only effect, or effect the other way; inactive means flat fitted curve, though single readings scatter.

Experiment: qHTS for induction of synthetic lethality in tumor cells producing 2HG: qHTS for the HT-1080-NT fibrosarcoma cell line;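 further: NT is the 2HG producing partner of a matched IDH1 knockdown line; nearly all actives have a fitted effect of over 55% in size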
Conditions: HT-1080-NT fibrosarcoma viability, CellTiter-Glo ATP luminescence, 48 h
Potency means the concentration at half of the fitted maximal effect.

SMILES	Potency
O=[N+]([O-])c1ccc2c(c1)C=Nc1ccccc1O2	inconclusive: 25.9 µM
Cc1cc(C)cc(OP(C)(=O)Nc2ccc(SC(F)(F)F)cc2)c1 (configuration not stated)	inconclusive: 18.4 µM
CC1CCOC(=O)C=CC=CC(=O)OC2CC3OC4C5OC5(C)CCC4(COC(=O)C1O)C2(C)C31CO1 (configuration not stated)	inconclusive: 0.259 µM
CCCCCOc1ccc(NP(C)(=O)Oc2ccc(Cl)cc2Cl)cc1 (configuration not stated)	inconclusive: 25.9 µM
CC(C)c1ccc(OP(C)(=O)Nc2ccc(SC(F)(F)F)cc2)cc1 (configuration not stated)	inconclusive: 20.6 µM
Cc1cc(-c2cccc3ccccc23)c(C)cn1.O=[N+]([O-])c1cc([N+](=O)[O-])c(O)c([N+](=O)[O-])c1	inconclusive: 16.4 µM
COc1ccc(OP(C)(=O)Nc2ccccn2)cc1 (configuration not stated)	inconclusive: 0.112 µM
